From PubChem BioAssay AID1794845 (National Center for Advancing Translational Sciences (NCATS), 2023)
The whole screen tested about 6,900 compounds, of which fewer than 10 were called active. The call rests on the fitted dose curve; in most records, active means well fitted curve in the direction sought with a large enough effect; inconclusive means small, poorly fitted or top-dose-only effect, or another doubt; inactive means no such curve, though single readings can be large or run the other way. The list shows a part of the results.

Chains of the proteins cited; added tags and fusions are not shown. Lines headed by an entry give the natural chain unless they say otherwise; changes in a name come on top.
UniProt C7C422: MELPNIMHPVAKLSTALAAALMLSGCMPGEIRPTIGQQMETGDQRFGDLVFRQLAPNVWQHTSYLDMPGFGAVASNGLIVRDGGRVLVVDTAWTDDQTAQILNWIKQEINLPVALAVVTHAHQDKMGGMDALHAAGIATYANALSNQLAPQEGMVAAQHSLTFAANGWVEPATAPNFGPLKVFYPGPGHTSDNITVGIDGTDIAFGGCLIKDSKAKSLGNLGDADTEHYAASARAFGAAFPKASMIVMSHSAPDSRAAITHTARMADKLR

Target: Metallo-beta-lactamase type 2 (Klebsiella pneumoniae) (UniProt C7C422)
Test: qHTS to identify inhibitors of the New Delhi Metallo-beta-lactamase (NDM): primary screen against the NCATS Gemini Collection; further: % of control where 0% means no effect
Settings: NDM-1 enzyme, meropenem hydrolysis, absorbance 300 nm; at 38.4 µM (top of the series) unless noted
Method in brief: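 Meropenem hydrolysis (50 uM final) by 2 nM NDM-1 read as 300 nm absorbance after 30 min, following >30 min compound–enzyme preincubation in HEPES pH 7.0 with 1 uM ZnSO4 and 0.01% Tween20.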

Structure (SMILES)	activity % (negative = inhibition)
CCn1cc(S(=O)(=O)N2CCC(C3CCN(C(=O)NC)CC3)C2)cn1 (stereo not drawn)	inactive: -0.104%
Cc1cc(C)n(Cc2ccc(C(=O)N3CC4CC(C3)[C@H]3CCCC(=O)N3C4)o2)n1 (stereo partly drawn)	inactive: 3.2%
COc1ccc(CC(=O)N2CCCC3(Cc4ccccc4CN3C(=O)C3CCCC3)C2)cc1 (stereo not drawn)	inactive: 2.34%
CN(C)C[C@@H]1CN(C2CCOCC2)C[C@H]1NC(=O)c1nccc2ccccc12	inactive: -0.66%
COCCCN1CCC(CNc2nccc(-c3cnn(C)c3)n2)C1 (stereo not drawn)	inactive: 5.91%
COc1ccc2cc1Nc1ccc(cc1)C[C@H](NCc1ccc3c(c1)CCO3)C(=O)N(C)[C@H](C(=O)NCCC(C)C)C2	inactive: -1.18%
COc1ccc2c(c1)C(CN1CCN(c3ccc4oc(C(=O)O)cc4c3Cl)CC1)=CC(C)(C)CO2	inactive: 6.23%
O=C1COc2ccc(S(=O)(=O)N3CCCn4nc(CO)cc4C3)cc2N1	inactive: 2.86%
CN1CCC(C(=O)N2Cc3ccccc3CC3(CCN(C)C3)C2)CC1 (stereo not drawn)	inactive: 0.867%
c1cc(-c2nc(C3CCOC3)nn2Cc2ccc3c(c2)OCO3)[nH]n1 (stereo not drawn)	inactive: 8.71%
O=C(c1ccc(C(F)(F)F)cc1)N1CCC2(C1)C(=NC1CCCCC1)NC(=O)N2c1cccnc1 (stereo not drawn)	inactive: 5.4%
COc1ccc(Cc2nnc3ccc(C(=O)N4CCN(Cc5ccccc5)CC4)cn23)cc1	inactive: 0.58%
Cc1ccc(N2C(=O)N[C@@H]3CCN(C(=O)CC4(CC(=O)O)CCCC4)[C@@H]3C2=O)cc1	inactive: 0.234% [at 57.5 µM]
O=C1NCCCCCN(S(=O)(=O)c2cccs2)[C@H]2CCCC[C@@H]12	inactive: 8.37%
CS(=O)(=O)N1CCC(OC2CCN(C(=O)Nc3ccccc3C(F)(F)F)CC2)CC1	inactive: 0.281%
COc1cccc(CN2C[C@@H](CO)[C@H](NC(=O)C3CC3)C2)n1	inactive: 4.02%
Cc1noc2c(-c3cnn(C)c3)cc(-c3cccnc3)nc12	inactive: -5.52% [at 57.5 µM]
CCc1noc([C@@H]2CC(F)(F)CN2C(=O)c2cocn2)n1	inactive: 8%
O=C(CCn1ccn2nc3c(c2c1=O)CCCC3)N1CCSCC1	inactive: 5.47%
O=C1C(N2CCN(S(=O)(=O)c3cc(F)ccc3F)CC2)CCN1Cc1cccnc1 (stereo not drawn)	inactive: 13.2%
O=C(C1CCCCC1)N1CCC(OC2CCN(Cc3cccnc3)CC2)CC1	inactive: -2.3%
O=C(CCc1nnn2c1CN(C(=O)C1CCCC1)CC2)N1CCOCC1	inactive: -3.97%
CCn1cc(S(=O)(=O)NCC2Cn3cccc3C(=O)N2C)cn1 (stereo not drawn)	inactive: -1.08%
CCC(C)N1Cc2cc(NC(=O)Cc3cccc(OC)c3)ccc2OCC1=O (stereo not drawn)	inactive: 3.07%
Cc1noc(C)c1-c1cc2c(cc(C)n2C)c(-c2ccnn2C)n1	inactive: 44.8% [at 57.5 µM]
Cc1nc(N2CCCCCC2)ncc1C(=O)O	inactive: 0.287%
CCOC(=O)C1CCCN(C(=O)C2CCc3nnc(C4CC4)n32)C1 (stereo not drawn)	inactive: -0.407%

Structure (SMILES)	activity % (negative = inhibition)
O=C(NCc1ccncc1)C1CN(Cc2ccccn2)CC12CCOCC2 (stereo not drawn)	inactive: 1.85%
CCCc1nc(C(=O)N2CC[C@H](CO)[C@H](O)C2)cs1	inactive: -0.0418%
Cc1cc(C(=O)NCC2(COc3ccc(S(C)(=O)=O)cc3)C[C@@H](O)[C@@H](O)C2)n(C)n1 (stereo partly drawn)	inactive: 16.8%
O=C(OCc1ccccc1)N1CCC2(CC1)C(=O)NN=C2C1CC1	inactive: 3.02% [at 57.5 µM]
CCc1nc2c(c(NCCn3nc(C)c(CC)c3C)n1)CCNCC2	inactive: 8.06%
CCN(Cc1noc(C2CCC2)n1)C(=O)c1cc(C(C)C)n2ncnc2n1	inactive: 0.51%
OC[C@H]1C[C@@H](NCc2ccc(F)cc2)[C@H](O)[C@@H]1O	inactive: 2.08% [at 77.1 µM]
Cc1ccccc1NC(=O)c1cc2n(n1)CC(c1ccc(Cl)cc1)OC2 (stereo not drawn)	inactive: 1.14%
CCCC1CCN(C(=O)c2coc(COc3ccc4ccc(OC)cc4c3)n2)C1 (stereo not drawn)	inactive: -7.62%
CCN1CCN(c2ccc(C(=O)N3CCCC(c4ccccc4)CC3)cn2)CC1 (stereo not drawn)	inactive: 12.3%
Cn1ccc(Nc2cc3c(cn2)CN(CCc2ccccc2)CCN3)n1	inactive: 29.4% [at 57.5 µM]
Cc1nn(C(=O)CCCC(=O)N2CCC(CCOc3ccc(F)cc3)C2)c2ccccc12 (stereo not drawn)	inactive: 22.6%
Cc1cccc(Cn2nc(C3CCCNC3)n(-c3ccccc3)c2=O)c1 (stereo not drawn)	inactive: -11.8%
O=C(O)[C@H]1C[C@H](C(=O)NCc2ccccn2)CN(Cc2ccccc2)C1	inactive: 12.3%
C[C@]1(CO)[C@H]2Cc3sc(NC(=O)c4cccs4)nc3[C@@H](CC(=O)O)[C@]2(C)CC[C@H]1O	inactive: 8.34%
CCc1cc(N2CCC(NCCc3cccc(Cl)c3)CC2)nc(C)n1	inactive: 0.815%
C[S+](=O)([O-])N1CCC2(C1)N=C(c1ccccn1)C(=O)N2 (stereo not drawn)	inactive: 0.441% [at 57.5 µM]
CCc1cc(C(=O)N2CCC(c3nnc(Cn4cncn4)n3C)CC2)no1	inactive: 10.7%
COc1cc(CCC(=O)N2C[C@@H](C(N)=O)[C@H](c3nc(C)no3)C2)on1	inactive: 10.5%
O=C1N2CCCC2CN1C1CCN(Cc2ccsc2)CC1 (stereo not drawn)	inactive: 1.31% [at 57.5 µM]
CC(C)(C)C(=O)Nc1nc2c(s1)C[C@@H]1[C@](C)(CO)[C@H](O)CC[C@@]1(C)[C@@H]2CC(=O)NC1CC1	inactive: -3.97%
COc1cccc(CN2CCC(Oc3ccccc3-c3nc(-c4ccncc4)no3)C2)c1 (stereo not drawn)	inactive: 4.74%
CN(Cc1ccc(-c2ccccc2)cc1)C(=O)Cc1ccccn1	inactive: -0.709% [at 57.5 µM]
COC(C(=O)Nc1ccnn1C1CCN(C(=O)CO)CC1)c1ccccc1 (stereo not drawn)	inactive: -2.35%
Cc1cccc(-c2noc([C@@H]3Cc4nc[nH]c4CN3C(=O)c3ccc(-c4ccccc4)cc3)n2)c1	inactive: 8.38%
Cc1ncc2c(c1CNC(=O)CC(C)c1ccccc1)CCNC2 (stereo not drawn)	inactive: 13.6%

In another format: entries from further up
Structure (SMILES) | activity % (negative = inhibition)
COCCCN1CCC(CNc2nccc(-c3cnn(C)c3)n2)C1 (stereo not drawn) | inactive: 5.91%
Cc1noc(C)c1-c1cc2c(cc(C)n2C)c(-c2ccnn2C)n1 | inactive: 44.8% [at 57.5 µM]
Cc1cc(C(=O)NCC2(COc3ccc(S(C)(=O)=O)cc3)C[C@@H](O)[C@@H](O)C2)n(C)n1 (stereo partly drawn) | inactive: 16.8%
